About 170 (0.05%) of roughly 340,000 compounds were called active. Inconclusive results, whose numbers are uncertain, are shown with a selection of clear calls. Calls follow the shape of the dose curve; as a rule, active = well fitted inhibition curve with a large enough effect in the signal ratio, with a control signal flat (not every such curve was filed as active); inconclusive = small, poorly fitted or top-dose-only effect, or effect the other way, or a change in a side signal; inactive = flat fitted curve, though single readings scatter; the % refers to the signal ratio. Where the call is inconclusive, the potency comes from a doubtful curve fit.
Experiment: qHTS Assay to Find Inhibitors of Chronic Active B-Cell Receptor Signaling;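 as to activity change, negative = inhibition: plate controls were basal doxycycline-induced cells for no effect and cells given 10 µM MG132 for full effect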
Conditions: ABC-DLBCL IkBa-CBG/CBR reporter, luminescence ratio (green luciferase fused to IkBa over red control in TMD8 lymphoma cells), 4 h; activity change, negative = inhibition: at 46.1 µM (top of the series) unless noted
Procedure, shortened: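 Concentration-response series (up to 46 uM) were applied to TMD8 dual-reporter cells for 4 h at 37C with doxycycline. Green/red ratio, after filter-overlap correction, defined %Activity; red signal alone was normalised to basal cells and zero luminescence.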
In the case of COC(=O)c1sc(NC(=O)c2csc3c2CCCC3)nc1C, the activity change, negative = inhibition is reported as inconclusive: -17.5%.
For CCCN(CC(=O)Nc1ccccc1OC)C(=O)CCC(=O)c1ccc(OCC)cc1, the “activity change, negative = inhibition” value was inactive: -0.579%.
For O=C(Cc1cccs1)Nc1ccc(N2CCOCC2)cc1, the “activity change, negative = inhibition” value was inactive: -4.82%.
For CCN(CC(=O)Nc1c(F)cccc1F)C(=O)c1ccc2c(c1)OCCO2, the “activity change, negative = inhibition” value was inactive: 3.92%.
For CCN1C(=O)CC(NNC(=O)c2ccc(Cl)cc2)C1=O (stereo not given), the activity change, negative = inhibition was inconclusive: -5.68%.
With O=C1CC(Cc2ccccc2)C(=O)N1c1ccc(Cl)cn1 (stereo not given) the activity change, negative = inhibition was inconclusive: -1.55%.
In the case of COc1ccccc1NS(=O)(=O)c1cc(NC(=O)Nc2ccc(Cl)cc2Cl)ccc1N1CCCCC1, the activity change, negative = inhibition is reported as inconclusive: 4.15%.
With O=[N+]([O-])c1ccc(S(=O)(=O)CC(CN2CCOCC2)N2CCOCC2)cc1 (stereo not given) the activity change, negative = inhibition was inconclusive: -24.5%.
With O=c1[nH]c2ccc(Cl)cc2c(-c2ccccc2)c1SC(=S)N1CCCCC1 the activity change, negative = inhibition was inconclusive: 14.4%.
For COc1ccccc1NC(=O)CCn1c(=S)oc2ccccc21, the activity change, negative = inhibition was inconclusive: -7.71%.
In the case of CCOCCCNC(=O)c1ccc2c(c1)ncn2C1CCCC1, the activity change, negative = inhibition is reported as inconclusive: 8%.
For CC(C)N(Cc1nc(-c2ccccc2)no1)C(=O)CN(C)S(=O)(=O)c1ccccc1, the activity change, negative = inhibition was inconclusive: 9.08%.
With COc1ccc(-c2cc([C@H]3[C@@H]4C=CCC[C@@]4(C)C(=O)N3Cc3ccccc3)ccc2F)cc1 the “activity change, negative = inhibition” value was inactive: -0.06%.
With N#Cc1c(NC(=O)CSc2nc3ccccc3s2)sc2c1CCCC2 the “activity change, negative = inhibition” value was inactive: -0.665%.
In the case of CCOc1ccc(/C=N/NC(=O)c2ccc(O)cc2)cc1CN1CC2CC(C1)c1cccc(=O)n1C2 (stereo not given), the Potency is reported as inconclusive: 2.06 µM [falling, partial curve].
In the case of CCN(c1ccccc1)S(=O)(=O)c1ccc(N2CCN(c3ccc(OC)cc3)CC2)nc1, the “activity change, negative = inhibition” value is reported as inactive: 2.05%.
With Cc1ccc(C)c(N2CCN(C(=O)c3cccn4c(=O)c5ccccc5nc34)CC2)c1 the “activity change, negative = inhibition” value was inactive: -1.45%.
With CCN(CC)S(=O)(=O)c1ccc2c(c1)N(CC(=O)NCCCN1CC(C)CC(C)C1)C(=O)CO2 (stereo not given) the “activity change, negative = inhibition” value was inactive: -0.258%.
In the case of COc1cc2c(cc1OC)C(c1ccc(OC)c(OC)c1OC)CC(=O)N2 (stereo not given), the activity change, negative = inhibition is reported as inconclusive: -27.8%.
In the case of O=C(O)CCCn1cc(NC(=O)COc2ccccc2F)cn1, the activity change, negative = inhibition is reported as inconclusive: -9.31%.
For Cc1cc(C)cc(NC(=O)CCc2nc3sc4c(c3c(=O)[nH]2)CCCC4)c1, the Potency was inconclusive: 29.1 µM [rising, partial curve, poor fit].
With COc1ccc(C(=O)O/N=C(\N)c2ccccc2)c(OC)c1 the Potency was inconclusive: 29.1 µM [cytotoxic, single point].
With COc1ccccc1NS(=O)(=O)c1cccc(NC(=O)CCNC(=O)c2ccccc2OC)c1 the activity change, negative = inhibition was inconclusive: -3.53%.
For O=C(c1cnc2n(c1=O)CCS2)N(c1ccccc1)C1CCCCC1, the “activity change, negative = inhibition” value was inactive: -1.27%.
In the case of Cc1cc(C)c(OCC(=O)Nc2ccc(N3CCOCC3)cc2)c(Br)c1, the “activity change, negative = inhibition” value is reported as inactive: -0.639%.
In the case of COc1ccc(CNC(=O)CCCSc2ccccc2)cc1, the Potency is reported as inconclusive: 0.398 µM [rising, full curve, poor fit].
With CN(C)CCCO/N=C(\c1ccccc1)c1ccncc1 the activity change, negative = inhibition was inconclusive: 1.26%.
In the case of N#CC1=C(N)OC2=C(CC/C2=C\c2ccccc2Cl)C1c1ccccc1Cl (stereo not given), the Potency is reported as inconclusive: 29.1 µM [falling, single point].
With Cc1ccc(OCC(=O)NC(C)c2ccc(Cl)c(Cl)c2)c([N+](=O)[O-])n1 (stereo not given) the Potency was inconclusive: 31.6 µM [falling, single point].
For Cc1[nH]c2ccccc2c1/C=N/NC(=S)NCc1ccccc1, the “activity change, negative = inhibition” value was inactive: 1.55%.
In the case of Cc1ccc(Cn2nnc3c(=O)[nH]c(C4CCCN(S(=O)(=O)c5ccccc5)C4)nc32)cc1 (stereo not given), the Potency is reported as inconclusive: 16.4 µM [falling, single point].
In the case of CCOc1ccc2nc(NC(=O)Nc3cccs3)sc2c1, the activity change, negative = inhibition is reported as inconclusive: 2.86%.
With O=C(CN1CCCCCC1)Nc1ccccc1C(=O)Nc1ccccc1 the Potency was inconclusive: 23.1 µM [falling, single point].
In the case of O=C(O)c1cc2ccc3cccc4ccc(c1)c2c34, the activity change, negative = inhibition is reported as inconclusive: 5.73%.
In the case of NC(=O)C1CCN(Cc2nc3cc(Cl)ccc3c(=O)[nH]2)CC1, the “activity change, negative = inhibition” value is reported as inactive: 0.605%.
With O=C1C2=C(c3ccccc31)[N+](=O)[C@@H]1CCCC[C@@H]1N2[O-] the activity change, negative = inhibition was inconclusive: 0.471%.
For CCOC(=O)Nc1nc(-c2ccc(Cl)cc2Cl)cs1, the activity change, negative = inhibition was inconclusive: -3.32%.
For Cc1ccc(N(Cc2ccc(C(=O)NC3CCCCC3)cc2)S(C)(=O)=O)cc1C, the activity change, negative = inhibition was inconclusive: 17.5%.
In the case of COc1cc(C(=O)OCC(=O)N2CCC(Cc3ccccc3)CC2)cc(OC)c1OC, the activity change, negative = inhibition is reported as inconclusive: 3.48%.
With COc1ccc(C(=O)Nc2c(C)ccc3nsnc23)cc1[N+](=O)[O-] the activity change, negative = inhibition was inconclusive: -0.992%.
In the case of COc1ccc2[nH]c(C(=O)N(C)c3ccc(F)cc3F)cc2c1, the activity change, negative = inhibition is reported as inconclusive: 1.99%.
In the case of COc1cccc(NC(=O)C(Cc2ccccc2)NC(=O)C2CCC(C)CC2)c1 (stereo not given), the Potency is reported as inconclusive: 2.59 µM [falling, full curve].
For CCCSc1nsc(SCCC)c1C#N, the Potency was inconclusive: 32.6 µM [falling, single point].
With COc1ccc(OC)c(NC(=O)CN2C(=O)NC(C)(c3ccc4c(c3)OCCO4)C2=O)c1 (stereo not given) the activity change, negative = inhibition was inconclusive: 0.0626%.
For Nc1cc([N+](=O)[O-])ccc1Nc1ccc(O)cc1, the activity change, negative = inhibition was inconclusive: 17.5%.
With COc1ccc(CNS(=O)(=O)c2ccccc2Br)cc1 the activity change, negative = inhibition was inconclusive: -8.76%.
In the case of COc1ccc(/C=C2\CCCc3c2nc2ccccc2c3C(=O)OCC(=O)c2c(N)n(C)c(=O)n(C)c2=O)cc1, the activity change, negative = inhibition is reported as inconclusive: -4.4%.
For CCOC(=O)C1CCCN(Cc2c(C(=O)N3CCCCC3)nc3c(C)cccn23)C1 (stereo not given), the “activity change, negative = inhibition” value was inactive: -8.93%.
With Cc1cccc(C)c1NC(=O)CNC(=O)CNC(=O)Cc1cccc2ccccc12 the activity change, negative = inhibition was inconclusive: -13.2%.
In the case of CCCn1c2ccccc2c2nnc(SCCN3CCOCC3)nc21, the “activity change, negative = inhibition” value is reported as inactive: 4.03%.
For CSc1nc(C)cc(SCC(=O)Nc2ccccc2)n1, the activity change, negative = inhibition was inconclusive: -18.5%.
In the case of CCOC(=O)N1CCN(Cc2cn[nH]c2-c2ccc(-c3ccccc3)cc2)CC1, the Potency is reported as inconclusive: 35.5 µM [falling, single point].
In the case of CO/N=C\CC(=O)Nc1ccc(Oc2ccccc2)cc1, the Potency is reported as inconclusive: 11.2 µM [falling, partial curve, poor fit].
In the case of CCc1nc(Nc2cccc(OC)c2)c2oc3ccccc3c2n1, the activity change, negative = inhibition is reported as inconclusive: -15.7%.
For O=C(O)c1cc(/C=C/c2ccc(N3CCOCC3)cc2)nc2ccccc12, the “activity change, negative = inhibition” value was inactive: -0.313%.
In the case of O=C(CNC(=O)C1CCCCC1)NNC(=O)c1ccccc1Br, the “activity change, negative = inhibition” value is reported as inactive: -2.73%.
For Cc1ccccc1C(CC(=O)c1cccs1)C(C#N)C#N (stereo not given), the activity change, negative = inhibition was inconclusive: 5.97%.
In the case of Cc1cc(=O)c2cc(Cl)ccc2[nH]1, the activity change, negative = inhibition is reported as inconclusive: 5.33%.
In the case of CCOC(=O)C1CCN(C(=O)c2cc3cc(F)ccc3[nH]2)CC1, the activity change, negative = inhibition is reported as inconclusive: -7.42%.
In the case of CCCCC(=O)N1CCN(c2nc3c(C)c(C)ccc3s2)CC1, the activity change, negative = inhibition is reported as inconclusive: 13.9%.
In the case of CC(C)(C)c1ccc(C(=O)N2CCC(=O)N(C(COCc3ccccc3)Cc3ccccc3)CC2)cc1 (stereo not given), the Potency is reported as inconclusive: 25.9 µM [falling, single point].
In the case of Cc1cccc(NC(=O)C(=O)N/N=C/c2ccncc2)c1, the Potency is reported as inconclusive: 11.2 µM [falling, partial curve, poor fit].
In the case of CC1CCN(CC(=O)Nc2ccc(C(=O)N3CCCCC3)cc2)CC1, the activity change, negative = inhibition is reported as inconclusive: 5.6%.
For COCCNC(=O)/C(C#N)=C/C=C/c1ccccc1, the Potency was inconclusive: 22.4 µM [falling, single point].
With COc1cccc(-c2c(C(=O)N/N=C/c3sccc3C)nnn2-c2nonc2N)c1 the activity change, negative = inhibition was inconclusive: 17.4%.
With C=CC[C@@H](CC(=O)N[C@@H](CO)Cc1ccccc1)C(=O)N[C@H](COC(=O)[C@@H](CC=C)CC(=O)OC(C)(C)C)Cc1c[nH]c2ccccc12 the activity change, negative = inhibition was inconclusive: -14.4%.
In the case of O=C(NCCc1cccc(F)c1)C1CCCN(c2nc3ccccc3s2)C1 (stereo not given), the activity change, negative = inhibition is reported as inconclusive: -18.8%.
For COc1ccc(C(=O)C(OC(=O)c2ccccc2Cl)c2ccccc2)cc1 (stereo not given), the activity change, negative = inhibition was inconclusive: 3.26%.
With CCCCn1c(N)c(N(Cc2ccccc2OC)C(=O)c2cc(CC)c(C)s2)c(=O)[nH]c1=O the activity change, negative = inhibition was inconclusive: 5.26%.
For O=C(N/N=C/c1sc(=O)[nH]c1-[n+]1ccccc1)c1ccccc1[O-], the Potency was inconclusive: 35.5 µM [falling, single point].
In the case of CC(=O)c1ccc(NC(=S)NCCc2cccc(Cl)c2)cc1, the “activity change, negative = inhibition” value is reported as inactive: -0.534%.
In the case of COc1ccccc1CNC(=O)c1cc(-c2ccccc2C)n(CC2CC(c3cccc([N+](=O)[O-])c3)=NO2)n1 (stereo not given), the “activity change, negative = inhibition” value is reported as inactive: 8.75%.
For CCSc1nnc(NC(=O)C2CCCCC2)s1, the Potency was inconclusive: 11.2 µM [falling, partial curve].
With CCOc1cccc2sc(N(CCN(CC)CC)C(=O)c3cccc(N4C(=O)CCC4=O)c3)nc12 the Potency was inconclusive: 14.6 µM [falling, partial curve, poor fit].
For COc1ccccc1N1C(=O)C2CCC(c3ccccc3)CC2C1=O (stereo not given), the “activity change, negative = inhibition” value was inactive: -0.138%.
In the case of O=CN1CCCN(Cc2nc(Cc3ccccc3F)no2)CC1, the activity change, negative = inhibition is reported as inconclusive: 15.6%.
With Cc1cc(S(=O)(=O)N2CCCCC2CCNC(=O)C(=O)NCC2CCCO2)ccc1F (stereo not given) the “activity change, negative = inhibition” value was inactive: -1.64%.
For O=C1CC2(CCN(S(=O)(=O)c3ccccc3)CC2)Oc2ccccc21, the “activity change, negative = inhibition” value was inactive: -3.46%.
With Cn1c(CCN2CCN(c3ccccn3)CC2)nc2cc(NS(=O)(=O)c3ccc(Cl)cc3)ccc21 the activity change, negative = inhibition was inconclusive: -1.97%.
For CCOC(=O)c1c(C)n(-c2ccc(C)cc2)c2ccc(OCC(O)CN3CCN(C)CC3)cc12 (stereo not given), the Potency was inconclusive: 35.5 µM [falling, single point].

Source: PubChem BioAssay AID493014 (National Center for Advancing Translational Sciences (NCATS), 2011)
Potency is read from the fitted curve at half-maximal effect.
